The text below walks through data of article doi:10.1101/2023.09.27.559775.

Results are given in words; binding and its absence hold for the method and conditions named. In cells and extracts the contact can be indirect. A yes stands for co-enrichment or nearness to the bait. Other partners may have been found.

This test deals with FW2.2 fused to YFP at its C-terminal end (tomato (Solanum lycopersicum cv. AC)) (UniProt Q9LKV7). The test can be described thus: affinity purification with mass spectrometry.

For the substance “Callose Synthase SlCalS3a (Solyc01g006370) (from UniProt A0A3Q7E8V3) (enzyme)”, the binding result is given as “binds”. Turning to “Callose Synthase SlCalS12 (Solyc07g053980) (from UniProt A0A3Q7I943) (enzyme)”, the binding entry is recorded as “binds”.
